In the experiment the target is HA-tagged PIPKIα, wild type (UniProt Q99755). Briefly: co-IP; tagged proteins co-transfected in HEK293 cells for 48 h; lysis in 1% Brij58, 150 mM NaCl, 20 mM HEPES pH 7.4; precipitated by anti-HA, anti-Myc or anti-Flag antibody, partner detected by its tag; in one panel cells treated with 5 μM LPA for 2 h.

Protein sequences, listed by entry. Tags and fused reporters are not part of them. Lines headed by an entry give the natural chain unless they say otherwise; changes in a name come on top.
UniProt Q99755: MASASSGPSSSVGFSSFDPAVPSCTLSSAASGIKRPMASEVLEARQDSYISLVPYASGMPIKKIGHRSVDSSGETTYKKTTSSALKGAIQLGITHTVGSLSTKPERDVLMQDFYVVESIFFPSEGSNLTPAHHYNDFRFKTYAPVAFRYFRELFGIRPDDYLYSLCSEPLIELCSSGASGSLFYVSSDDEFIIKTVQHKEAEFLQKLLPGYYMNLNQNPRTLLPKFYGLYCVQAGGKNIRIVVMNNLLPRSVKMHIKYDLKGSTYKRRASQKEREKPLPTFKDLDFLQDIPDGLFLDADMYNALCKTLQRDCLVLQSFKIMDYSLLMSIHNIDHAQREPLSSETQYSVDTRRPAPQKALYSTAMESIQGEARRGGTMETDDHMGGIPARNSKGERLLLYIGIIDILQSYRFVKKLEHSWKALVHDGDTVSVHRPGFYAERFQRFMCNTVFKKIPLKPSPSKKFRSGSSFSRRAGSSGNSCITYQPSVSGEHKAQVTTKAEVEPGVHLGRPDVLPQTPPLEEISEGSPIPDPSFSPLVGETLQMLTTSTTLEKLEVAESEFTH
UniProt P46937: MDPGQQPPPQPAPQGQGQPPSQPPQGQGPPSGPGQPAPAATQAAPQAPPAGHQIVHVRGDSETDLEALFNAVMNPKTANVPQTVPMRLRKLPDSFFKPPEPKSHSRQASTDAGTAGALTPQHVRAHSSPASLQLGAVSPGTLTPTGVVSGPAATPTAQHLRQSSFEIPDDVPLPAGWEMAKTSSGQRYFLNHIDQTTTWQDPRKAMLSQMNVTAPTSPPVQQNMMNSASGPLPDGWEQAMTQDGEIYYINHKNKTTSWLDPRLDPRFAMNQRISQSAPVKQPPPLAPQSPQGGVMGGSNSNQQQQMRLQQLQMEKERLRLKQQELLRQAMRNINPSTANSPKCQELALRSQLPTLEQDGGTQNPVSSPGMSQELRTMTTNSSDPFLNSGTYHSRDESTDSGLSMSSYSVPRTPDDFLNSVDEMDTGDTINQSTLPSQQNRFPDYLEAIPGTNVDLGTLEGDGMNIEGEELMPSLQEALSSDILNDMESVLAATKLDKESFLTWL

Results are given in words; binding and its absence hold for the method and conditions named. In cells and extracts the contact can be indirect. Binding can be weak; no strength is given.

Regarding “Flag-tagged YAP, wild type (from UniProt P46937 1-504)”, the binding result was “binds”.
